Experimental data reported in paper PMC7759511.
No constants are given. Whether binding was seen depends on the method and setting. Binding seen in cells or lysates may run through a third protein. Some entries that bind do so weakly or less than the wild type.

Biological target: T1, serpin family E member 2 (human (endogenous in Hep3b and MHCC97h)) (UniProt P07093)
T1 sequence: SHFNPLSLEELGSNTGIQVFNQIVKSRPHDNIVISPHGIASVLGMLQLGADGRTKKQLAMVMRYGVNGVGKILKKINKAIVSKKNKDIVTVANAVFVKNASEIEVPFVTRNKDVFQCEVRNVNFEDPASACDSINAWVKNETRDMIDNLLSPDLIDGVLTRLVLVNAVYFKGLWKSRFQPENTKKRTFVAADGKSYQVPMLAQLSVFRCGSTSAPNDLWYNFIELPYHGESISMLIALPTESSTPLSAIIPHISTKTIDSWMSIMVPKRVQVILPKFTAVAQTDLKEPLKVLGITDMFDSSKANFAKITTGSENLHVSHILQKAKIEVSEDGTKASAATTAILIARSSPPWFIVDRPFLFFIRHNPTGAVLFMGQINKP
Test: co-IP; lysates of Hep3b and MHCC97h cells (20 mM HEPES, 150 mM NaCl, 2 mM EDTA, 1.5 mM MgCl2, 0.5% NP-40); anti-BAP31 (FMU-BAP31-2), anti-SERPINE2 or mouse IgG isotype with protein A beads overnight; western blot

B1: B-cell receptor-associated protein 31 (protein, UniProt P51572-1 1-246)
chain: MSLQWTAVATFLYAEVFVVLLLCIPFISPKRWQKIFKSRLVELLVSYGNTFFVVLIVILVLLVIDAVREIRKYDDVTEKVNLQNNPGAMEHFHMKLFRAQRNLYIAGFSLLLSFLLRRLVTLISQQATLLASNEAFKKQAESASEAAKKYMEENDQLKKGAAVDGGKLDVGNAEVKLEEENRSLKADLQKLKDELASTKQKLEKAENQVLAMRKQSEGLTKEYDRLLEEHAKLQAAVDGPMDKKEE
With B1 as the binder, how does the binding read?
The binding was “binds”.
